From article doi:10.1101/2023.04.20.537746
No constants are given. Whether binding was seen depends on the method and setting. Binding seen in cells or lysates may run through a third protein. Some results given as binding are weak or reduced against the parent protein; the word gives no strength.

Amino acid sequences for entries named in this document (tags omitted). Residues count along the entry.
UniProt P35918, residues 20-1345: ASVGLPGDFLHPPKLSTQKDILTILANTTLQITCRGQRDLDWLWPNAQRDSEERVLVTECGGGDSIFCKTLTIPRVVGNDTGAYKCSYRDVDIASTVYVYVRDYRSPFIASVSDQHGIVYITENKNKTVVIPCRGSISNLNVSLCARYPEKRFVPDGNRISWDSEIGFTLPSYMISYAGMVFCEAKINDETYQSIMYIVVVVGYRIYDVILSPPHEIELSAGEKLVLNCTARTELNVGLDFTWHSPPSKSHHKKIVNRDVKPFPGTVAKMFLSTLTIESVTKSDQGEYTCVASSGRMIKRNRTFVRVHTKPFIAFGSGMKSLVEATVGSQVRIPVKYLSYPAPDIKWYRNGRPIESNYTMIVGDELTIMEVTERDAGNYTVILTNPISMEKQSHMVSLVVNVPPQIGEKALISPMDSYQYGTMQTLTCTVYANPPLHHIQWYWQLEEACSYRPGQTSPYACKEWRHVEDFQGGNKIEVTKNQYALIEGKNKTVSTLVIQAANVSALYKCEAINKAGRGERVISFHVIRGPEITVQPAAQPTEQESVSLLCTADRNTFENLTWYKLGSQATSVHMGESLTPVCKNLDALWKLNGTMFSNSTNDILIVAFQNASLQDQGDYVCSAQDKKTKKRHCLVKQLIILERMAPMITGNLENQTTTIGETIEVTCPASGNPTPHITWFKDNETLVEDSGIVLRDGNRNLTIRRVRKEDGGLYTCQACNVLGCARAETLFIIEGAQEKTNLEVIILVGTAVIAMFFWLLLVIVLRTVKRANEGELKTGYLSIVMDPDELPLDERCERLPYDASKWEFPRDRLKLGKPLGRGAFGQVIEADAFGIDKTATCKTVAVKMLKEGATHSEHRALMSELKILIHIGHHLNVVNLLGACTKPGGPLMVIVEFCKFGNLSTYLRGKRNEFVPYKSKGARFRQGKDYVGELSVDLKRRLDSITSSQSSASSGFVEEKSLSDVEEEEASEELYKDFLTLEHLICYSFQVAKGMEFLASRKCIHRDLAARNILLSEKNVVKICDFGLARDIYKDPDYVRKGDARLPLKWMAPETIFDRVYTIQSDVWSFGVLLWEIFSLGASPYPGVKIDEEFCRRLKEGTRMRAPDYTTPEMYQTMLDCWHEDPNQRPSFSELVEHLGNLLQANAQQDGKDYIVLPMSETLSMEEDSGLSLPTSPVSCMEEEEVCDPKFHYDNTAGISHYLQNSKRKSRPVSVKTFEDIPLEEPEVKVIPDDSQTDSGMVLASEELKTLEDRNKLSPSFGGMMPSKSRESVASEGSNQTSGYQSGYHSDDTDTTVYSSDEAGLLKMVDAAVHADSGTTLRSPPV
UniProt P35968, residues 20-1356: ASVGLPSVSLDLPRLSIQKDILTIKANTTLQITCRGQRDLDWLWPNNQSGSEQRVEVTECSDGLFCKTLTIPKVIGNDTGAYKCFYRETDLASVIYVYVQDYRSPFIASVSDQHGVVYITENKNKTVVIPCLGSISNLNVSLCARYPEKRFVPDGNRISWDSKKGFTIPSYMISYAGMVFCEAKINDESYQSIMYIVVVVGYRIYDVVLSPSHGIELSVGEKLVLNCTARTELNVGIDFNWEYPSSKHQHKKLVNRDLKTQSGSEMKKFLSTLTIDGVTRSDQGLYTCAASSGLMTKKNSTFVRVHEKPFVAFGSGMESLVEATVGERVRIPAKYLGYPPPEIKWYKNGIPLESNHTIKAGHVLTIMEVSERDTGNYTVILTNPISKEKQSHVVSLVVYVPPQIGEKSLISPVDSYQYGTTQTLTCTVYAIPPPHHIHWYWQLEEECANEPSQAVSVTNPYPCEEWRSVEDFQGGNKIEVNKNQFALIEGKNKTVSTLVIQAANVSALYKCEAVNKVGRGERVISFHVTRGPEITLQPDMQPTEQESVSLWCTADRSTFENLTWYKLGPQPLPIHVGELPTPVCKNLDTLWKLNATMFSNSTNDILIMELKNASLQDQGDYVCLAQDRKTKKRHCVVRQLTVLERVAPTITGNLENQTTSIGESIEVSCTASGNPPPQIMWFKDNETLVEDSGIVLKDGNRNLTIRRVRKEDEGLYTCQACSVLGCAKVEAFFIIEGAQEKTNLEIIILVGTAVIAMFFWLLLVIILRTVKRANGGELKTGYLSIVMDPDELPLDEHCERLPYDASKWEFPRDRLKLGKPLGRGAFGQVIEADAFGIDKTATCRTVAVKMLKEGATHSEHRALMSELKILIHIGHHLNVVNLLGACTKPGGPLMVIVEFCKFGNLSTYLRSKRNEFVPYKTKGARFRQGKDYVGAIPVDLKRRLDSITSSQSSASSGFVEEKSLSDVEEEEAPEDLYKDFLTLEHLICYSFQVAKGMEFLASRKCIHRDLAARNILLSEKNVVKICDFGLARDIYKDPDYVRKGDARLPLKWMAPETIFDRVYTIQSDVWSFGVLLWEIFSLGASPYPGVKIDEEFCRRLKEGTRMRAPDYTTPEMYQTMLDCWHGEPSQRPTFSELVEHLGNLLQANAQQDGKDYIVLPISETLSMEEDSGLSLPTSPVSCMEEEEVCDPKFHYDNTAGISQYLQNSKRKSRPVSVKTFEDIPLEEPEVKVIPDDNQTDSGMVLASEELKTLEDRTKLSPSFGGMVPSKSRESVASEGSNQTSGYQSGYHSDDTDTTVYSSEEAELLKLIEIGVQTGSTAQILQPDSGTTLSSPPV

Legend:
[1] = biological target: VEGFR-2 (mouse, endogenous in mPMVECs) (mouse (endogenous in mPMVECs)) (UniProt P35918); assay: co-IP
[2] = biological target: VEGFR-2 (human, endogenous in HUVECs) (human (endogenous in HUVECs)) (UniProt P35968); assay: co-IP

binding [1]	binding [2]	Binder
binds	–	Protein tyrosine phosphatase 1B (PTP1B), endogenous in mPMVECs (enzyme, UniProt P35821 1-432) MEMEKEFEEIDKAGNWAAIYQDIRHEASDFPCKVAKLPKNKNRNRYRDVSPFDHSRIKLHQEDNDYINASLIKMEEAQRSYILTQGPLPNTCGHFWEMVWEQKSRGVVMLNRIMEKGSLKCAQYWPQQEEKEMVFDDTGLKLTLISEDVKSYYTVRQLELENLTTKETREILHFHYTTWPDFGVPESPASFLNFLFKVRESGSLSLEHGPIVVHCSAGIGRSGTFCLADTCLLLMDKRKDPSSVDIKKVLLEMRRFRMGLIQTADQLRFSYLAVIEGAKFIMGDSSVQDQWKELSREDLDLPPEHVPPPPRPPKRTLEPHNGKCKELFSSHQWVSEETCGDEDSLAREEGRAQSSAMHSVSSMSPDTEVRRRMVGGGLQSAQASVPTEEELSSTEEEHKAHWPSHWKPFLVNVCMATLLATGAYLCYRVCFH
–	binds	DCBLD1 (Discoidin, CUB, and LCCL domain-containing protein 1), human, endogenous in HUVECs (protein, UniProt Q8N8Z6 35-715) EELGDGCGHLVTYQDSGTMTSKNYPGTYPNHTVCEKTITVPKGKRLILRLGDLDIESQTCASDYLLFTSSSDQYGPYCGSMTVPKELLLNTSEVTVRFESGSHISGRGFLLTYASSDHPDLITCLERASHYLKTEYSKFCPAGCRDVAGDISGNMVDGYRDTSLLCKAAIHAGIIADELGGQISVLQRKGISRYEGILANGVLSRDGSLSDKRFLFTSNGCSRSLSFEPDGQIRASSSWQSVNESGDQVHWSPGQARLQDQGPSWASGDSSNNHKPREWLEIDLGEKKKITGIRTTGSTQSNFNFYVKSFVMNFKNNNSKWKTYKGIVNNEEKVFQGNSNFRDPVQNNFIPPIVARYVRVVPQTWHQRIALKVELIGCQITQGNDSLVWRKTSQSTSVSTKKEDETITRPIPSEETSTGINITTVAIPLVLLVVLVFAGMGIFAAFRKKKKKGSPYGSAEAQKTDCWKQIKYPFARHQSAEFTISYDNEKEMTQKLDLITSDMADYQQPLMIGTGTVTRKGSTFRPMDTDAEEAGVSTDAGGHYDCPQRAGRHEYALPLAPPEPEYATPIVERHVLRAHTFSAQSGYRVPGPQPGHKHSLSSGGFSPVAGVGAQDGDYQRPHSAQPADRGYDRPKAVSALATESGHPDSQKPPTHPGTSDSYSAPRDCLTPLNQTAMTALL
